The results in this text go back to PMC12040169 (PLOS Biology, 2025).

The list shows a part of the results.

The test system of this experiment is T1, CTL2-GFP (C. trachomatis L2/434/Bu, GFP-expressing).
T1 construct: L2/434/Bu, GFP-expressing
Further details: species or system HeLa; Intracellular C. trachomatis growth in HeLa cells, bulk GFP fluorescence relative to DMSO. The note with it: bulk GFP, single well; 28.5 h, 10 µM; inhibitor.
Take `NC1OC(COC(=O)c2ccccc2)C(OC(=O)c2ccccc2)C1OC(=O)c1ccccc1` (centres unmarked) [CBK010282]: the “% of control remaining” value is given as 121.421%.

In the case of `CC(C)c1nc(CC(=O)N2CCOC(c3ccc(F)cc3)C2)cs1` (centres unmarked) [CBK305334], the “% of control remaining” value stood at 159.54%.

On to `FC(F)(F)c1cc(-c2cc(N3CCN(c4ccccn4)CC3)ncn2)cc(C(F)(F)F)c1` [CBK091082], for which the “% of control remaining” value is 147.754%.

Take `COc1cc(C#N)ccc1OCc1cc(C)on1` [CBK002581]: the “% of control remaining” value was determined as 108.74%.

As to `CCCC(=O)NC1CCN(C(=O)c2snnc2CC)CC1` [CBK297744], the “% of control remaining” value was 134.013%.

For `CS(=O)(=O)c1ccc(CN2C(=O)CC3(CCN(Cc4ccccc4)CC3)C2=O)cc1` [CBK144065T], the “% of control remaining” value turned out to be 100.011%.

For the compound `C#CCn1ncc2c3sc(C)cc3n(CC)c2c1=O` [CBK284225], the “% of control remaining” value was 147.981%.

As for `COc1ccccc1N(CC(=O)Nc1ccc2c(c1)oc1ccccc12)S(=O)(=O)c1ccccc1` [CBK264737], the “% of control remaining” value came out at 120.557%.

Consider `Cc1occc1C(=O)Nc1nc(CC(=O)N(C)Cc2ccsc2)cs1` [CBK305631], for which the “% of control remaining” value turned out to be 136.448%.

As for `O=C(NCCc1ccc(Cl)cc1)C1(Cc2cccc(-c3cccnc3)c2)CCOCC1` [CBK285606], the “% of control remaining” value stood at 84.5297%.

As for `COC(=O)CNC(=O)C1CC(=O)N(c2ccccc2Br)C1` (centres unmarked) [CBK296672], the “% of control remaining” value is 147.617%.

For the compound `O=C(c1ccc(F)cc1)N1CCC(Oc2nccnc2OCc2ccc(Cl)c(Cl)c2)CC1` [CBK160721], the “% of control remaining” value turned out to be 127.802%.

`COc1cc2c(cc1OC)CN(Cc1ccc(OCc3ccccc3)c(OC)c1)CC2` [CBK033974]: the “% of control remaining” value was determined as 118.096%.

Turning to `O=C(CN(C(=O)CNC(=O)c1cccs1)c1cccc(C(F)(F)F)c1)NC1CCCCC1` [CBK084697], the “% of control remaining” value amounted to 96.31%.

`CCNC(=O)N[C@@H]1C=C[C@@H](c2c(C)nn(CCC#N)c2C)C1` [CBK289171]: the “% of control remaining” value is given as 111.766%.

As for `CCOc1ccc(N(Cc2ccc(C(=O)O)cc2)S(C)(=O)=O)cc1` [CBK287231], the “% of control remaining” value is 128.925%.

As for `CCOc1cc(/C=C(/C#N)c2nc3ccccc3[nH]2)ccc1OCc1ccc(C(=O)O)o1` [CBK267923], the “% of control remaining” value was found to be 130.133%.

For `C[n+]1cn(/N=C/c2ccco2)cn1` [CBK028562I], the “% of control remaining” value came out at 137.491%.

Turning to `CCN(CC)CCCNc1c([N+](=O)[O-])c(=O)n(C)c2ccccc12` [CBK264893], the “% of control remaining” value was 100.644%.

Consider `CC(C)c1nc(NCCc2nnc3n2CCCC3)nc(N(C)C)n1` [CBK306426], for which the “% of control remaining” value is on record as 68.8088%.

As for `O=C(c1cccc(F)c1)N1CCCC(c2cc3cccnc3[nH]2)C1` (centres unmarked) [CBK284939], the “% of control remaining” value was found to be 88.3271%.

As for `Clc1cccc(C2N(Cc3ccccc3)CCN2Cc2ccccc2)c1` [CBK261222], the “% of control remaining” value is 102.941%.

Consider `C(=C\c1nccnc1OCCOc1ccccc1)/c1ccccc1` [CBK106885], for which the “% of control remaining” value is 100%.

`Cc1ccc(C(=O)N2CCC(C(=O)NC(c3ccccc3)c3ccc4ccccc4n3)CC2)cc1` (centres unmarked) [CBK059663]: the “% of control remaining” value is given as 103.412%.

With `COc1ccc(C(NC(=O)C2CCC(N)CC2)c2ccccc2C)cn1` (centres unmarked) [CBK078551], the “% of control remaining” value was 114.725%.

Consider `FC(F)(F)c1nc2ccccc2nc1SCCc1ccccn1` [CBK103731], for which the “% of control remaining” value amounted to 117.962%.

For the compound `NNC(=O)/C(=C\c1cccc([N+](=O)[O-])c1)NC(=O)c1ccc(Br)o1` [CBK262573], the “% of control remaining” value was 108.01%.

In the case of `COc1ccc(C(NC(=O)C2CCN(S(C)(=O)=O)CC2)c2ccccc2C)cn1` (centres unmarked) [CBK059738], the “% of control remaining” value turned out to be 142.803%.

As for `C=C(C)CN1CCN(C(=O)c2[nH]c3ccc(OCC)cc3c2C)CC1` [CBK282666], the “% of control remaining” value was 111.691%.

`Cc1cccc(NCC(=O)N/N=C/c2cc3ccccc3nc2Cl)c1` [CBK261236]: the “% of control remaining” value was 100%.

Turning to `Clc1ccc(Cl)c(N/N=C(\c2ccccc2)c2cccnc2)c1` [CBK015932C], the “% of control remaining” value amounted to 72.53%.

In the case of `CC(=O)Nc1ccc(-c2nc3ccc(-c4ccc5nc(-c6ccc(NC(C)=O)cc6)oc(=O)c5c4)cc3c(=O)o2)cc1` [CBK261391], the “% of control remaining” value came to 105.416%.

Regarding `CCOC(=O)CN1CCN(C(=O)Nc2ccccc2Br)CC1` [CBK044156], the “% of control remaining” value is 132.072%.

Take `CC(C)NC(=O)Cn1c(-c2cccs2)cc2cccnc21` [CBK282454]: the “% of control remaining” value is listed as 144.717%.

Consider `Cc1cccc(-n2c(SCC(=O)Nc3ccc(Br)cc3F)nnc2-c2ccccc2)c1` [CBK265903], for which the “% of control remaining” value was 126.25%.

Take `Cc1cc(C)n2ncc(C(=O)N3CCCC3c3ccsc3)c2n1` (centres unmarked) [CBK305616]: the “% of control remaining” value is 112.939%.

Turning to `FC(F)(F)c1ccnc(OC2CCNC2)n1` (centres unmarked) [CBK113296], the “% of control remaining” value is listed as 109.511%.

In the case of `O=C(Nc1cccc2cccnc12)c1sc2ccccc2c1Cl` [CBK262132], the “% of control remaining” value was found to be 106.177%.

`O=C(NC1CC2(CCOCC2)Oc2ccccc21)c1cccs1` (centres unmarked) [CBK285377]: the “% of control remaining” value is reported as 115.877%.

Take `CC(C)(C)c1ccc(NC(=O)N(Cc2ccccc2C(F)(F)F)CC2CCNCC2)cc1` [CBK049752]: the “% of control remaining” value is 120.748%.

In the case of `COc1ccc(NC(=O)CSc2ncnc3sc(C)cc23)c(OC)c1` [CBK277541], the “% of control remaining” value is reported as 138.693%.

For the compound `Cc1n[nH]c(C)c1CC(=O)NC(Cc1cccs1)c1nccs1` (centres unmarked) [CBK285093], the “% of control remaining” value was determined as 112.891%.

Regarding `Cc1nc(-c2cccnc2)[nH]c(=O)c1CCC(=O)N1CCNC(C)C1` (centres unmarked) [CBK304163], the “% of control remaining” value was 112.694%.

For the compound `COc1cc(/C=N/n2c(S)nnc2C(F)(F)F)cc(Br)c1O` [CBK265321], the “% of control remaining” value worked out at 125.864%.

For `CN(Cc1ccccc1)C(=O)c1ccccc1NC(=O)c1ccccc1` [CBK267818], the “% of control remaining” value was 89.3744%.

Take `COc1ccc(C)cc1CC(=O)N1CCc2c(sc3ncnc(N)c23)C1` [CBK305878]: the “% of control remaining” value turned out to be 108.494%.

For `O=C(c1ccccc1[N+](=O)[O-])n1nc(-c2cccnc2)nc1NCc1cccs1` [CBK269094], the “% of control remaining” value was found to be 116.381%.

In the case of `O=c1c2cc(F)ccc2nc2n1CCN(Cc1cccs1)CC2` [CBK284859], the “% of control remaining” value is 82.1793%.

In the case of `O=C(Cn1cnc2ccc(F)cc2c1=O)N1CCOC2CCCCC21` (centres unmarked) [CBK253316], the “% of control remaining” value came out at 110.624%.

For the compound `Cc1cccnc1C(Cc1ccsc1)NC(=O)CCc1ccno1` (centres unmarked) [CBK284804], the “% of control remaining” value amounted to 137.673%.
